Source: the supplement of paper PMC12823440, “Inhibitors supercharge kinase turnover through native proteolytic circuits” (Nature, 2025)
Counter-ions that a name gives are not always drawn. Some of the results follow. The calls rarely recur for the same compound in another form.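 Kinases, fused to nanoluciferase, were expressed in K562 cells; luminescence was measured every 4 h from 2 to 18 h as percent of control (DMSO = 100%, positive control = 0%). A time point is decreased if signal falls significantly (2 sigma). Hits were called by the authors by a rule that is not shown; the count of time points alone does not decide it.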

Protein sequences, listed by entry. Tags and fused reporters are not part of them.
UniProt Q00535, whole entry, looked up: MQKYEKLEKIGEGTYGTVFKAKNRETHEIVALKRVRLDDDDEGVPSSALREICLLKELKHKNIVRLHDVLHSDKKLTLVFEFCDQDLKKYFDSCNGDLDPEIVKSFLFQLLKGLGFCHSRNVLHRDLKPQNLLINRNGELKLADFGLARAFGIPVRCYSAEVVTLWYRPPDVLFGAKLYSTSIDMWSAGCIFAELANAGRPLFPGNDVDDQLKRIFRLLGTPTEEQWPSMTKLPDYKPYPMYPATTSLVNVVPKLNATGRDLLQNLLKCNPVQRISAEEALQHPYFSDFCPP

These molecules were tested against CDK5 (UniProt Q00535) (assay: kinase-Nluc reporter destabilization hit call (1 = scored as downregulated) (binary); higher = compound decreases kinase abundance). Conditions: 2 µM; K562; 2-18 h.

kinase-Nluc reporter destabilization hit call, inactive:
CCc1nc(C(N)=O)c(Nc2ccc(N3CCC(N4CCN(C)CC4)CC3)c(OC)c2)nc1NC1CCOCC1 [Gilteritinib] 0
CCc1nc(C(N)=O)c(Nc2ccc(N3CCC(N4CCN(C)CC4)CC3)c(OC)c2)nc1NC1CCOCC1 [Gilteritinib hemifumarate] 0
Cc1[nH]c(/C=C2\C(=O)Nc3ccc(F)cc32)c(C)c1C(=O)NCCN1CCCC1 [Toceranib (phosphate)] 0
Cc1[nH]c(/C=C2\C(=O)Nc3ccc(F)cc32)c(C)c1C(=O)NCCN1CCCC1 [Toceranib] 0

Same assay, conditions: 2.5 µM; K562; 2-18 h

kinase-Nluc reporter destabilization hit call, inactive:
C=CC(=O)Nc1cc(Nc2nccc(-c3cn(C)c4ccccc34)n2)c(OC)cc1N(C)CCN(C)C [Osimertinib mesylate] 0
c1cc(-c2cnn3cc(-c4ccc(OCCN5CCCCC5)cc4)cnc23)ccn1 [Dorsomorphin] 0
CN(C)C/C=C/C(=O)Nc1cc2c(Nc3ccc(F)c(Cl)c3)ncnc2cc1O[C@H]1CCOC1 [Afatinib (dimaleate)] 0
C=CC(=O)Nc1cc(Nc2nccc(-c3cn(C)c4ccccc34)n2)c(OC)cc1N(C)CCN(C)C [Osimertinib] 0
CN(C)C(=O)c1cc2cnc(Nc3ccc(N4CCNCC4)cn3)nc2n1C1CCCC1 [Ribociclib hydrochloride] 0
COc1ccc(S(=O)(=O)Nc2ccccc2CN(C)C/C=C/c2ccc(Cl)cc2)cc1 [KN-92 (hydrochloride)] 0
COc1ccc(S(=O)(=O)Nc2ccccc2CN(C)C/C=C/c2ccc(Cl)cc2)cc1 [KN-92 (phosphate)] 0

A section from the list above, as a working copy:
kinase-Nluc reporter destabilization hit call, inactive:
c1cc(-c2cnn3cc(-c4ccc(OCCN5CCCCC5)cc4)cnc23)ccn1 [Dorsomorphin] 0
CN(C)C/C=C/C(=O)Nc1cc2c(Nc3ccc(F)c(Cl)c3)ncnc2cc1O[C@H]1CCOC1 [Afatinib (dimaleate)] 0
